Values quoted from earlier work, collected in patent US20170173059A1, “Novel Combination of Naturally Occurring Compounds to Assist With Suspected Mycobacterial Infections Related to Autoimmune Conditions” (priority 2015, published 2017).
At least one compound was matched to its structure with a doubt left.

Tested on: MAP
Settings: bovine and human MAP strains, radiometric culture

CC1=C(/C=C/C(C)=C/C=C/C(C)=C/C(=O)O)C(C)(C)CCC1 [Retinoic acid]
inhibition of MAP strains in vitro: inhibitory effects
